System: PBMC
Assay: ELISPOT (IFNγ, IL-5, IL-10, IL-17, IL-21) of PBMC expanded 14 days with Bla g extract, then stimulated with peptides or peptide pools
Format: cell-based, human
Design: key to Average Magnitude of Response: spot forming cells (SFC) per 10^6 PBMC; Response Rate per Subject: unit not given here
Conditions: non-redundant epitopes; sensitized donors
Description: PBMC Isolation and Cell Cultures: PBMC (peripheral blood mononuclear cells) were isolated from 450 mL (one unit) of blood by density gradient centrifugation as described and cryopreserved. For in vitro expansion of PBMC for peptide screening, cells were cultured in RPMI1640 (Omega Scientific)+5% human AB serum (Gemini Bioscience), GlutaMAX (Gibco), and penicillin/streptomycin (Omega Scientific) at 2×10^6 per mL, stimulated with 10 ug/mL Bla g extract (Greer), and incubated at 37° C. in 5% CO2. Every three days, IL-2 and IL-7 (10 U/mL) were added to the cultures. Cells were harvested for peptide screening at day 14.
ELISPOT Assays: Production of IFNγ, IL-5, IL-17, IL-10, and IL-21 (as representative of TH1, TH2, TH17, TR1, and […], respectively) in response to peptide stimulation was measured by ELISPOT as described previously. […]
To assess T cell reactivity, we utilized a strategy applied to the definition of epitopes from various allergen sources^15,16 utilizing in vitro stimulation with allergen extracts. […] As readout, we utilized ELISPOT assays specific for IL-5, IFNγ, IL-10, IL-17 and IL-21, chosen as representative of TH2, TH1, TR1, TH17 and TFH reactivity, respectively.

DLVANQPNLKALREK (listed as Blattella germanica)
Average Magnitude of Response: 91.0 | Response Rate per Subject: 7.1

Source: patent US11505581B2, “Antigens and T cell epitopes from cockroach and methods of making and using same” (La Jolla Institute for Allergy and Immunology, priority 2015, dated 2022)
